PubChem BioAssay AID652243, Drosophila RNAi Screening Center, 2013

- Screen: 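Fly genes required for human androgen receptor driven transcription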 (primary screen)
- System: Drosophila S2R+ cells
- Knock-down reagent: long dsRNA against Drosophila genes
- Time to read-out: 72 h (48 h, then 24 h hormone)
- Treatment: synthetic androgen R1881 at 10 nM for 24 h
- Measured: 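Per-well raw luminescence of the androgen-driven firefly reporter and of the Renilla control, two replicates each, without normalisation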
- Scale: firefly reporter light: higher = more light from androgen-responsive reporter; Renilla control light: higher = more constitutive control signal (cell number, transfection)
- Call rule: 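Across duplicate plates, a knock-down whose log firefly/Renilla ratio shifted a set fold down or up from the GFP/LacZ control mean was a hit; the downward cut appears as both 1.5 and 3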
- Calls: active = hit: reporter lowered or raised; inactive = no hit
The screen tested about 24,000 reagents; this is an unselected part of those with a known target gene and a result. Of all reagents, 246 (1%) are marked active. 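Plates not normalised; calls are printed but the firefly/Renilla ratio behind them is not deposited; fold cut for lowering reported inconsistently.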 The raw values are shown without normalisation. Names joined by + are all predicted targets of the reagent. Reagent sequences are not shown. Not given: the amount of reagent.

| predicted target | DRSC id | firefly reporter light, replicate 1 | firefly reporter light, replicate 2 | Renilla control light, replicate 1 | Renilla control light, replicate 2 | call |
| --- | --- | --- | --- | --- | --- | --- |
| CG31259 | DRSC14366 | 1.12e5 | 68290 | 2.17e6 | 1.47e6 | inactive |
| beta4GalT7 | DRSC14385 | 89880 | 1.37e5 | 1.40e6 | 1.59e6 | inactive |
| Tsen34 | DRSC22932 | 3.90e5 | 8.17e5 | 9.43e5 | 1.76e6 | inactive |
| Sk1 | DRSC19774 | 2.56e5 | 4.16e5 | 2.23e6 | 2.05e6 | inactive |
| Sk1 | DRSC36810 | – | – | – | – | inactive |
| Vav | DRSC20384 | 1.27e5 | 81879 | 5.28e5 | 3.45e5 | inactive |
| Vav | DRSC24485 | 3.60e5 | 3.28e5 | 1.54e6 | 6.98e5 | inactive |
| Rok | DRSC20277 | 1.16e5 | 1.30e5 | 7.57e5 | 8.35e5 | inactive |
| Rok | DRSC23348 | 4.29e5 | 4.59e5 | 8.46e5 | 7.46e5 | inactive |
| Rok | DRSC37039 | – | – | – | – | inactive |
| Ric | DRSC07532 | 1.17e5 | 1.29e5 | 1.44e6 | 1.44e6 | inactive |
| Ric | DRSC26601 | 2.40e5 | 2.96e5 | 5.45e5 | 4.08e5 | inactive |
| CG31174 | DRSC13518 | 2.00e5 | 1.56e5 | 2.06e5 | 3.04e5 | inactive |
| ogre | DRSC18809 | 1.74e5 | 1.72e5 | 9.79e5 | 8.81e5 | inactive |
| ogre | DRSC24730 | 4.32e5 | 3.98e5 | 5.10e5 | 3.54e5 | inactive |
| CG42502 + CG10570 | DRSC02071 | 8.76e5 | 7.28e5 | 2.27e6 | 2.23e6 | inactive |
| CG6472 | DRSC06989 | 54868 | 61375 | 9.40e5 | 9.40e5 | inactive |
| vap | DRSC20275 | 61883 | 1.23e5 | 5.65e5 | 7.81e5 | inactive |
| Alg13 | DRSC14864 | 6.91e5 | 1.10e6 | 4.94e5 | 8.37e5 | inactive |
| Alg13 | DRSC28209 | 9.73e5 | 8.14e5 | 2.05e6 | 1.36e6 | inactive |
| CG17999 | DRSC04300 | 9.01e5 | 8.68e5 | 1.81e6 | 2.16e6 | inactive |
| CG8543 | DRSC10990 | 2.38e5 | 2.38e5 | 3.77e6 | 3.30e6 | inactive |
| CG8543 | DRSC22809 | 4.83e5 | 9.02e5 | 1.03e6 | 1.82e6 | inactive |
| CG8543 | DRSC25399 | 6.31e5 | 9.22e5 | 1.34e6 | 1.52e6 | inactive |
| Caf1-105 | DRSC06209 | 2.25e5 | 1.10e5 | 1.05e6 | 7.79e5 | inactive |
| Or59c | DRSC04633 | 2.02e5 | 2.20e5 | 1.20e6 | 9.37e5 | inactive |
| Nup107 | DRSC01999 | 94907 | 1.39e5 | 1.14e6 | 1.45e6 | inactive |
| CG42565 | DRSC04154 | 1.43e5 | 1.81e5 | 1.48e6 | 1.38e6 | inactive |
| hbn | DRSC04238 | 2.09e5 | 2.51e5 | 2.70e6 | 2.70e6 | inactive |
| hbn | DRSC04239 | 3.87e5 | 5.12e5 | 2.01e6 | 1.68e6 | inactive |
| hbn | DRSC22436 | 2.05e5 | 5.45e5 | 9.98e5 | 1.60e6 | inactive |
| Klp67A + CG34456 | DRSC10420 | 1.46e5 | 1.37e5 | 1.60e6 | 1.06e6 | inactive |
| CG5892 | DRSC15910 | 4.27e5 | 2.57e5 | 3.23e6 | 3.45e6 | inactive |
| CG5892 | DRSC24710 | 7.42e5 | 7.57e5 | 7.12e5 | 8.49e5 | inactive |
| Or98a | DRSC16774 | 1.93e5 | 2.46e5 | 2.29e6 | 3.01e6 | inactive |
| Or98a | DRSC26173 | 2.95e5 | 2.46e5 | 6.24e5 | 7.55e5 | inactive |
| 14-3-3zeta | DRSC05028 | 1.02e6 | 8.09e5 | 1.89e6 | 1.69e6 | inactive |
| 14-3-3zeta | DRSC27525 | 2.99e5 | 2.53e5 | 3.91e5 | 7.69e5 | inactive |
| 14-3-3zeta | DRSC37012 | – | – | – | – | inactive |
| CG15865 | DRSC19733 | 8.16e5 | 4.40e5 | 3.87e6 | 3.21e6 | inactive |
| RabGGTa | DRSC12189 | 59599 | 38582 | 4.34e5 | 2.55e5 | inactive |
| CR31054 + CG4849 | DRSC28625 | 4.15e5 | 3.14e5 | 1.58e6 | 1.44e6 | inactive |
| CG13398 | DRSC02268 | 2.05e5 | 1.78e5 | 1.79e6 | 1.27e6 | inactive |
| AstC | DRSC02403 | 2.64e5 | 2.43e5 | 1.97e6 | 2.28e6 | inactive |
| Usp14 | DRSC02853 | 8.08e5 | 9.27e5 | 1.68e6 | 1.63e6 | inactive |
| Usp14 | DRSC26748 | 3.30e5 | 3.90e5 | 6.02e5 | 7.52e5 | inactive |
| CG6553 | DRSC07002 | 72452 | 59244 | 1.39e6 | 1.39e6 | inactive |
| salt | DRSC15427 | 56549 | 60519 | 6.09e5 | 4.62e5 | inactive |
| salt | DRSC25514 | 7.58e5 | 5.36e5 | 6.93e5 | 7.95e5 | inactive |
| IFT46 | DRSC02462 | 1.56e5 | 1.76e5 | 1.55e6 | 1.67e6 | inactive |
| elg1 | DRSC10229 | 62946 | 51670 | 5.59e5 | 4.32e5 | inactive |
| elg1 | DRSC27844 | 1.14e6 | 4.19e5 | 3.37e6 | 1.38e6 | inactive |
| CG6951 | DRSC10755 | 1.66e5 | 1.55e5 | 2.15e6 | 2.11e6 | inactive |
| CG8132 | DRSC16383 | 87409 | 1.25e5 | 1.40e6 | 1.69e6 | inactive |
| ng2 + ng1 | DRSC23988 | 9.42e5 | 6.20e5 | 5.53e5 | 5.35e5 | inactive |
| CecC | DRSC16606 | 1.42e5 | 1.20e5 | 2.45e6 | 2.38e6 | inactive |
| DEF8 | DRSC09840 | 9.73e5 | 8.78e5 | 1.78e6 | 1.89e6 | inactive |
| ms(2)35Ci | DRSC01460 | 1.81e5 | 1.88e5 | 5.33e5 | 4.44e5 | inactive |

An excerpt from above, limited to “firefly reporter light, replicate 1”.
elg1 [DRSC27844] = 1.14e6
CG6951 [DRSC10755] = 1.66e5
CG8132 [DRSC16383] = 87409
ng2 + ng1 [DRSC23988] = 9.42e5
CecC [DRSC16606] = 1.42e5
DEF8 [DRSC09840] = 9.73e5
